{
  "source": "paper PMC9146896",
  "about": "“Uracil as a Zn-Binding Bioisostere of the Allergic Benzenesulfonamide in the Design of Quinoline–Uracil Hybrids as Anticancer Carbonic Anhydrase Inhibitors” (Pharmaceuticals, 2022)",
  "tested_on": "lung cancer cell line (A549)",
  "assay": "Antiproliferative activity, MTT assay under hypoxic conditions",
  "conditions": "Homo sapiens, A549, read-out: Cytotoxicity IC50 A549",
  "data": [
    {"smiles": "CN[C@@H]1C[C@H]2O[C@@](C)([C@@H]1OC)n1c3ccccc3c3c4c(c5c6ccccc6n2c5c31)C(=O)NC4", "note": "[Staurosporine, staurosporine, reference compound]", "values": [
      {"measurement": "IC50", "value": "6.06 ± 0.17", "unit": "µM"}
    ]}
  ]
}
